US20160046678A1 (ZYNGENIA, published 2016)
These are yes or no findings as the source states them, for the method shown. Some results given as binding are weak or reduced against the parent protein; the word gives no strength.

The chains behind the UniProt entries cited, without tags or fusion partners. Residues count along the entry.
UniProt P08069, residues 31-932: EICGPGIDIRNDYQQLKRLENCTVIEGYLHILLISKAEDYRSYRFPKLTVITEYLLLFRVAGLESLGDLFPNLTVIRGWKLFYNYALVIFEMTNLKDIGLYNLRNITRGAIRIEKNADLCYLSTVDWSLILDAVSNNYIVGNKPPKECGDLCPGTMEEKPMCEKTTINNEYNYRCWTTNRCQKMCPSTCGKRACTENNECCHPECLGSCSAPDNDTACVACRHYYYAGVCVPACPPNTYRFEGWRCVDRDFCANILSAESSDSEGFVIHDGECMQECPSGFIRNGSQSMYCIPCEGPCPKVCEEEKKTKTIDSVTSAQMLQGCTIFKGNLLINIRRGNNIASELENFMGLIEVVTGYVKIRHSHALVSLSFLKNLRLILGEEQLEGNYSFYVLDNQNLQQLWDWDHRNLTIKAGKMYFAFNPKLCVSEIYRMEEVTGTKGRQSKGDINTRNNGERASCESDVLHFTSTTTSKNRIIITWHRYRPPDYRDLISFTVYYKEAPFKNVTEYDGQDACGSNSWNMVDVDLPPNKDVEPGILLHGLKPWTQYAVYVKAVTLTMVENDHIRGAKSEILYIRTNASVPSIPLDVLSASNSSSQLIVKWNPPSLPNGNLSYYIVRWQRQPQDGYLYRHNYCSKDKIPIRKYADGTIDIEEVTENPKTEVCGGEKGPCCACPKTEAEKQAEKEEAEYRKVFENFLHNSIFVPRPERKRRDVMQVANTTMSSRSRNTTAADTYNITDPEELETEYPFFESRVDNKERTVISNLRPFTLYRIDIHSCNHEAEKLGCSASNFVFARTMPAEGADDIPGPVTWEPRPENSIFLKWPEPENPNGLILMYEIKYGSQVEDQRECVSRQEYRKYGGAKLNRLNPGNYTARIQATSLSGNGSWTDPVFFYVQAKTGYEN

molecular target: IGF1R (UniProt P08069); assay: MRD identification, Example 48

binding, binds:
WEERCVDSDFYTQLCMLAW [IGF1990]
ALPECQDLMFYECLFT [IGF1896]
EPRLCHNYPDFYQCMSF [IGF1904]
EAECRYPDTDLMWLCTYFSG [IGF1445]
MAVGCTWVESCHWA [IGF1895]
VTEARTNDCNTTTFYHWFDCQLGTG [IGF1437]
AARWCDMQQHSFYECLQV [IGF1900]
AGVSADALCYEFPVLCFYDVG [IGF1387]
WEEWCVDSDFYTQLCMLAW [IGF1995]
NLMECHALDFNQGMQCVQAY [IGF1422]
HALCYEFPVLCFYDV [IGF1396]
AHALCYEFPVLCFYDV [IGF1421]
SVLGCDDVGFYQCLEF [IGF1899]
PGVSADALCYEFPVLCFYDV [IGF1395]
NLMHCHGLDFYQGMQCLQAY [IGF1443]
GTVLCPEDMDFYECMTFI [IGF1991]
WSNVCQARNMAFQECLEYL [IGF1999]
TLPECLYAPTFEICVEYL [IGF1989]
DALCYEFPVLCFYDV [IGF1409]
ASQTCIGMDFYSGLECLLG [IGF1905]
ESGDCPWLGHVSFEECLMWL [IGF1380]
DDLDCKCLTFYECMAAL [IGF1998]
FYNTCQFVGMEFYQCLDW [IGF1897]
LHSVCFEAPEWQQCLMQR [IGF1383]
DGESYFYVCLEHLLNVPGYHCVMTNG [IGF1390]
AHALCYEFPVLCFYDV [IGF1406]
VISECEGLTFYQCMASL [IGF1994]
SNGSCHIVDFYGWFQCQTS [IGF1906]
SYGTRWNPSFESNQFHMKLCVLMDGK [IGF1392]
VDMQCQVHGMTFYECLMRL [IGF1988]
NLMECHALDFNQGMQCLQAY [IGF1411]
AHALCYEFPVLCFYDVG [IGF1430]
ALAECIFEPTFEDCMWIL [IGF1987]
REELCSVSPFDYHCRLFS [IGF1992]
AYVCSNLNHCPALDFNQGMQCLQAYG [IGF1432]
DALCYEFPVLCFYDVG [IGF1446]
NLMECHALDFYQGMQCLQPYRHP [IGF1413]
DLMECHGLDFYKGMECLQAYG [IGF1414]
AHALCYEFPVLCFYDVG [IGF1405]
TSRRCEEYQDPLKEVCRYFL [IGF1401]
REPLCIQDDPIMYLHCYFSV [IGF1996]
DFYICLEHLLNVPGYHCVMTNG [IGF1408]
MSYTCEDFDLPWELCLSLH [IGF1997]
LSYTCQHFDLPWELCLSLH [IGF1993]
PGVSAHALCYEFPVLCFYDVG [IGF1386]
